Some of these results come from one statement about several compounds together. At least one structure is not confirmed: it was looked up by name or label, or the drawing left a doubt.
System: Pseudomonas syringae pv. syringae (Pss) SM1042-14R
Test: Dose-response assay (MIC/MBC) in M9 minimal broth
Settings: selection of ten PCs

| SMILES | antimicrobial efficacy against Pss SM1042-14R [µM] |
| --- | --- |
| Cn1cc(CNCCCn2ccnc2)c(-c2ccc(Oc3ccccc3)cc2)n1 [PC10] | ≤ 200 |
| CC1CCC(C(C)C)C(OC(=O)Cn2c[n+](CC(=O)OC3CC(C)CCC3C(C)C)c3ccccc32)C1 (stereo not shown) [PC4] | ≤ 200 |
| COc1cc(CN(C)Cc2ccccc2)ccc1OCC(O)CN1CCCCCCC1 (stereo not shown) [PC9] | ≤ 200 |
| CCN1/C(=C/c2ccc3ccccc3[n+]2CC)C=Cc2ccccc21 [PC2] | ≤ 200 |
| CCCCCCCCCCCCCCCCn1c[n+](C)c2ccccc21 [PC1] | ≤ 200 |
| CCCCCCCCCCCCCCCC[n+]1ccn(CC#N)c1.[Cl-] [PC3] | ≤ 200 |
| CCOc1ccc2nc3cc(N)ccc3c(N)c2c1 [PC7] | ≤ 200 |

Reference: patent US20260206756A1, “COMPOUNDS AND METHODS OF TREATING OR PREVENTING A BACTERIAL INFECTION IN A PLANT” (Ohio State Innovation Foundation, priority 2023, published 2026)
